From publication doi:10.1101/2021.07.02.450872
Like-named read-outs stand apart in the source and are kept apart here. Results are given in words; binding and its absence hold for the method and conditions named. In cells and extracts the contact can be indirect. Some binding calls cover weakened binding; strength is not graded here. For some assays here: Sequences can lack the tags named with a protein. One block for each molecule: values may come before it.

Sequences of proteins named here, by UniProt entry; tags and fusion partners are left off.
UniProt P38919: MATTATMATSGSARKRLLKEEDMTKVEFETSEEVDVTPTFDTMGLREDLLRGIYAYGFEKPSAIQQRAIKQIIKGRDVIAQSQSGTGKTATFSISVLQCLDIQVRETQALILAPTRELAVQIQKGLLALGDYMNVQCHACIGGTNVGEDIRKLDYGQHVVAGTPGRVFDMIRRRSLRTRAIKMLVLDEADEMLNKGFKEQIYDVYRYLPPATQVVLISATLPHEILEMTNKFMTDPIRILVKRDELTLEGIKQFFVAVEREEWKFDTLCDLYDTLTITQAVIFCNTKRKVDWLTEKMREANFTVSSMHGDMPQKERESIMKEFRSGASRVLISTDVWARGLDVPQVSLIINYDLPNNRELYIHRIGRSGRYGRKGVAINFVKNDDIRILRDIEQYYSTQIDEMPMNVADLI
UniProt Q9HAU5: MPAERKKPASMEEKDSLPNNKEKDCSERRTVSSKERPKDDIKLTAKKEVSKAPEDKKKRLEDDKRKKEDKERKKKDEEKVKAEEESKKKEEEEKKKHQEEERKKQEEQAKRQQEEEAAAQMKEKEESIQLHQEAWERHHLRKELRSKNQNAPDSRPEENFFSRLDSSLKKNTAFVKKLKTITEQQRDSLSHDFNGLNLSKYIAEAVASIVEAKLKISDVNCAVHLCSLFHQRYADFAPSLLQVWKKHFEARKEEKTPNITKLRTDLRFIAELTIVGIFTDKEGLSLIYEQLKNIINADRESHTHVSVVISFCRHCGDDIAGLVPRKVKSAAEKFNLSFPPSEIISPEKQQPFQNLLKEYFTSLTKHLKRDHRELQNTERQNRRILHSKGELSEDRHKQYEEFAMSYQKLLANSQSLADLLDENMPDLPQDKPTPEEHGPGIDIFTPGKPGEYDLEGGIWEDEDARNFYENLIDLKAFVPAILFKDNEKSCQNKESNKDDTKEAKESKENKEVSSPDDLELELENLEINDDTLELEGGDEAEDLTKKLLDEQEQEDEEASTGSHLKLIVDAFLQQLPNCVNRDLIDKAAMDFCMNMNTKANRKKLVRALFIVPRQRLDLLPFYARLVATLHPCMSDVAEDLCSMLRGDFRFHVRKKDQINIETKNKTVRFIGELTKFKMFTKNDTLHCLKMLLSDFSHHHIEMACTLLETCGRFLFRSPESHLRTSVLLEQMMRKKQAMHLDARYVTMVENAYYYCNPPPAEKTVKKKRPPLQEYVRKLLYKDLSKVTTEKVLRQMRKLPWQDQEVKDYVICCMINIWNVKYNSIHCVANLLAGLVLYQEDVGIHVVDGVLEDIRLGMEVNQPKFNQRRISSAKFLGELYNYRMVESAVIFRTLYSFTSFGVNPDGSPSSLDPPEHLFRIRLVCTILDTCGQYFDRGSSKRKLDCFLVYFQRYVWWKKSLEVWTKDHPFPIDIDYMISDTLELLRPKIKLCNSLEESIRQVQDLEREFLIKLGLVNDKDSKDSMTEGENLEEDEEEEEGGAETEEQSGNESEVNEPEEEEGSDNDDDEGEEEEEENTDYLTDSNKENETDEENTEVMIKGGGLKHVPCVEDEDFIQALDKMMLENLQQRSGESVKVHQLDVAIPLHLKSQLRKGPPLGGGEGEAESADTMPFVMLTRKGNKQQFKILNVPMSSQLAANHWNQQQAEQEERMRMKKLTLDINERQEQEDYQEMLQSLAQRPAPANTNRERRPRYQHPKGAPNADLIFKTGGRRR
UniProt P61326: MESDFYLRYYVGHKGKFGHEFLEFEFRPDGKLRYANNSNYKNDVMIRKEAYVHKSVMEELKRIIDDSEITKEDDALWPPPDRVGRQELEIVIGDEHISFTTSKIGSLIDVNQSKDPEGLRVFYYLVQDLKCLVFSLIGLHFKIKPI
UniProt O15234: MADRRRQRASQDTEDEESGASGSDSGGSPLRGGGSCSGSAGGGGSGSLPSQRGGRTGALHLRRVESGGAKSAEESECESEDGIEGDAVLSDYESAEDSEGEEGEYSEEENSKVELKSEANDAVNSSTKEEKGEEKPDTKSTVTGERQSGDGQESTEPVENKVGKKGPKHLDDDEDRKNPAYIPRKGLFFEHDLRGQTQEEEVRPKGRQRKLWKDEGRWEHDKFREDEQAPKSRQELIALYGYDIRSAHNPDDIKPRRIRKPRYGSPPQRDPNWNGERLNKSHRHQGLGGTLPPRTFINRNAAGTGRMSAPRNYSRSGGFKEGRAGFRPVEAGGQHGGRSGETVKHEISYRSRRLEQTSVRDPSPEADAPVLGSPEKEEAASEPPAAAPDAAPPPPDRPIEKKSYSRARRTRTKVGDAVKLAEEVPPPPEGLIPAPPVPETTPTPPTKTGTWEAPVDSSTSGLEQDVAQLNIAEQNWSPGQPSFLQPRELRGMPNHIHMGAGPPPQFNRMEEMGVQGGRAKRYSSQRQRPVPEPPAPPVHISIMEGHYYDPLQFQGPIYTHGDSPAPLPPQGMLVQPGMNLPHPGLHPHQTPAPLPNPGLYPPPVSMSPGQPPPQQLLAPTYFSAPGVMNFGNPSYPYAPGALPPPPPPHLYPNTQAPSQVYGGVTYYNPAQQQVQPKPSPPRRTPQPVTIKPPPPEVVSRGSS
UniProt P15170: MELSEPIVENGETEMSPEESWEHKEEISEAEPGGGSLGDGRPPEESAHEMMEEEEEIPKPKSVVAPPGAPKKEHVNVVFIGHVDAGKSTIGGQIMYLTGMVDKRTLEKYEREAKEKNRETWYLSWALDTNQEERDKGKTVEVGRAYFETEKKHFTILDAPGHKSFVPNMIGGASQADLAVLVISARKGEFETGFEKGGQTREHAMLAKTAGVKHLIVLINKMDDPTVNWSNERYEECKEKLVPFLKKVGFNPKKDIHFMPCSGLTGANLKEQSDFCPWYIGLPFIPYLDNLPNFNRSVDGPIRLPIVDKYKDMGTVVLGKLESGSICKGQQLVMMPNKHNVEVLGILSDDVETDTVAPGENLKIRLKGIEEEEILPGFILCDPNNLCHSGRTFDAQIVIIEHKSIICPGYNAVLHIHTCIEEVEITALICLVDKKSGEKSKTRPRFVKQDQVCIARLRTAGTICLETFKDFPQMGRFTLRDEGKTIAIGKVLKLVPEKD

Assays:
Assay in all cases: co-IP
[1] = target: EIF4A3 (endogenous, HCT116) (human (endogenous in HCT116)) (UniProt P38919)
[2] = target: endogenously MYC-tagged UPF2 (human (endogenous in HCT116)) (UniProt Q9HAU5)
[3] = target: T1, FLAG-tagged human UPF3B (human) (UniProt Q9BZI7)
T1 sequence: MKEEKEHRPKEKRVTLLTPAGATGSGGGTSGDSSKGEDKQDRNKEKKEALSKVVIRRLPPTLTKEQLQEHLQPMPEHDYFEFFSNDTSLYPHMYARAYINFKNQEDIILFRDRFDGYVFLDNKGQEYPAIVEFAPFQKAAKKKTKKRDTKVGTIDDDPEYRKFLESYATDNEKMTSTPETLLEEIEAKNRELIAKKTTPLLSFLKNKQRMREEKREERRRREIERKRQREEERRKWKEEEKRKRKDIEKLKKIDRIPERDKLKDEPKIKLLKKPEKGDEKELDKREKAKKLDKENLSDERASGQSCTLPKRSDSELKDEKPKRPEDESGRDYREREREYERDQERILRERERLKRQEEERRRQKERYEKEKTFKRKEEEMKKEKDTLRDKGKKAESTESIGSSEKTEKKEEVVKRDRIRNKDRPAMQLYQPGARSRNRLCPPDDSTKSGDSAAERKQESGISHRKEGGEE

[4] = target: T2, FLAG-tagged human UPF3A (human) (UniProt Q9H1J1)
T2 sequence: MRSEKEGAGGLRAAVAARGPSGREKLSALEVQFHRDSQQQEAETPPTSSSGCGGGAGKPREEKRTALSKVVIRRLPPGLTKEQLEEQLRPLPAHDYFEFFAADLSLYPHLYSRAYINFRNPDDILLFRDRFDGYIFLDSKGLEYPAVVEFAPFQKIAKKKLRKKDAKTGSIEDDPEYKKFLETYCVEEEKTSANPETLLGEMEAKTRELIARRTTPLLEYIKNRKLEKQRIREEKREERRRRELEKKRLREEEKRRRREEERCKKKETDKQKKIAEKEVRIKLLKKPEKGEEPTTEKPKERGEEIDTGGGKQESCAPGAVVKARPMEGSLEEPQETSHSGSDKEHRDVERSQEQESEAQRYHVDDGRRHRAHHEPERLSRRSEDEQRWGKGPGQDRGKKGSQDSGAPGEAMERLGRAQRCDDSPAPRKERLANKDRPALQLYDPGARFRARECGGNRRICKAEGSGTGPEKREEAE

[5] = target: endogenously FLAG-tagged MAGOH (human (endogenous in HCT116)) (UniProt P61326)
[6] = target: EIF4A3 (endogenous, HCT116) (human (endogenous in HCT116)) (UniProt P38919); remark: listed apart in the source
[7] = target: T3, endogenously FLAG-tagged UPF1 (human (endogenous in HCT116)) (UniProt Q92900)
T3 sequence: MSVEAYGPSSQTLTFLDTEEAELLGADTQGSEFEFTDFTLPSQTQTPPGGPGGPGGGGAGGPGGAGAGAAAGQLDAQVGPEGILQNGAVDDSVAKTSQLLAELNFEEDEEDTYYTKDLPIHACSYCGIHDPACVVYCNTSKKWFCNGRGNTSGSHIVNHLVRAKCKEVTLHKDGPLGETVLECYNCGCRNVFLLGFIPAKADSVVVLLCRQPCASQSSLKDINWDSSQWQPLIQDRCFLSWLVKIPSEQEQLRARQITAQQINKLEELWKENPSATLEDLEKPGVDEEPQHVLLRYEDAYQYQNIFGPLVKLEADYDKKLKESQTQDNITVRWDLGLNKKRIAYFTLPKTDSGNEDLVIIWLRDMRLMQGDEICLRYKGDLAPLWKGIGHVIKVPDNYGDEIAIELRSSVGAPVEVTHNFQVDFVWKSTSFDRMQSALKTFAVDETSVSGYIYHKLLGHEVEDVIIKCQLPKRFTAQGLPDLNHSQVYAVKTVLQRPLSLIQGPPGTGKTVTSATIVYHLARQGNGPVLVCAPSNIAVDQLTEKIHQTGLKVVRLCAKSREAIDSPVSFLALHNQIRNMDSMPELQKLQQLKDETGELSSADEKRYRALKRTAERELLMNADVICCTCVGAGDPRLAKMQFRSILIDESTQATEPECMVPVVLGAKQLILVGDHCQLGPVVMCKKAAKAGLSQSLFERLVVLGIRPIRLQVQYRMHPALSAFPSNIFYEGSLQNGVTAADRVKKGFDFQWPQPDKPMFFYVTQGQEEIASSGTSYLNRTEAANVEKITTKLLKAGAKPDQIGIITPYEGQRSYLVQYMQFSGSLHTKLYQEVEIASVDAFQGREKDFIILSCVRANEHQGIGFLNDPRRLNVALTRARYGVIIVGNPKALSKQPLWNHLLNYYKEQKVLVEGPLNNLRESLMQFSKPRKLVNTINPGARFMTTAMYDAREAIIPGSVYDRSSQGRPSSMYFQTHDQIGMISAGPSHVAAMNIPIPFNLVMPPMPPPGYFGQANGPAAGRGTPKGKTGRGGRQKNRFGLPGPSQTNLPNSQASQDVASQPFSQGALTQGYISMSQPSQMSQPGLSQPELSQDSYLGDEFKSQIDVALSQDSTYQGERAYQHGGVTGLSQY

[8] = target: CASC3 (endogenous, HCT116) (human (endogenous in HCT116)) (UniProt O15234)
[9] = target: endogenously MYC-tagged UPF2 (human (endogenous in HCT116)) (UniProt Q9HAU5); remark: listed apart in the source
[10] = target: endogenously FLAG-tagged MAGOH (human (endogenous in HCT116)) (UniProt P61326); remark: listed apart in the source
[11] = target: EIF4A3 (endogenous, HeLa) (human (endogenous in HeLa)) (UniProt P38919)

- binding [1]: binds
- binding [2]: binds
Molecule: CASC3 (endogenous, HCT116) (from UniProt O15234 1-703)

- binding [3]: binds
- binding [4]: binds
Molecule: UPF2 (endogenous, HCT116 3DKO cells) (from UniProt Q9HAU5 1-1272)

- binding [5]: binds
Molecule: endogenously MYC-tagged UPF2 (from UniProt Q9HAU5 1-1272)

- binding [3]: no binding
- binding [4]: no binding
Molecule: eRF3 (GSPT1) (from UniProt P15170 1-499)

- binding [1]: binds
Molecule: endogenously FLAG-tagged CASC3 (from UniProt O15234 1-703)

- binding [6]: binds
- binding [7]: binds
- binding [8]: binds
- binding [9]: binds
- binding [10]: binds
B1: UPF3A (endogenous, HCT116) (protein, UniProt Q9H1J1 1-476)
chain: MRSEKEGAGGLRAAVAARGPSGREKLSALEVQFHRDSQQQEAETPPTSSSGCGGGAGKPREEKRTALSKVVIRRLPPGLTKEQLEEQLRPLPAHDYFEFFAADLSLYPHLYSRAYINFRNPDDILLFRDRFDGYIFLDSKGLEYPAVVEFAPFQKIAKKKLRKKDAKTGSIEDDPEYKKFLETYCVEEEKTSANPETLLGEMEAKTRELIARRTTPLLEYIKNRKLEKQRIREEKREERRRRELEKKRLREEEKRRRREEERCKKKETDKQKKIAEKEVRIKLLKKPEKGEEPTTEKPKERGEEIDTGGGKQESCAPGAVVKARPMEGSLEEPQETSHSGSDKEHRDVERSQEQESEAQRYHVDDGRRHRAHHEPERLSRRSEDEQRWGKGPGQDRGKKGSQDSGAPGEAMERLGRAQRCDDSPAPRKERLANKDRPALQLYDPGARFRARECGGNRRICKAEGSGTGPEKREEAE

- binding [11]: binds
B2: UPF3A (endogenous, HeLa) (protein, UniProt Q9H1J1 1-476)
chain: MRSEKEGAGGLRAAVAARGPSGREKLSALEVQFHRDSQQQEAETPPTSSSGCGGGAGKPREEKRTALSKVVIRRLPPGLTKEQLEEQLRPLPAHDYFEFFAADLSLYPHLYSRAYINFRNPDDILLFRDRFDGYIFLDSKGLEYPAVVEFAPFQKIAKKKLRKKDAKTGSIEDDPEYKKFLETYCVEEEKTSANPETLLGEMEAKTRELIARRTTPLLEYIKNRKLEKQRIREEKREERRRRELEKKRLREEEKRRRREEERCKKKETDKQKKIAEKEVRIKLLKKPEKGEEPTTEKPKERGEEIDTGGGKQESCAPGAVVKARPMEGSLEEPQETSHSGSDKEHRDVERSQEQESEAQRYHVDDGRRHRAHHEPERLSRRSEDEQRWGKGPGQDRGKKGSQDSGAPGEAMERLGRAQRCDDSPAPRKERLANKDRPALQLYDPGARFRARECGGNRRICKAEGSGTGPEKREEAE

- binding [6]: binds
B3: FLAG-tagged human UPF3A (protein, UniProt Q9H1J1 1-476)
chain: MRSEKEGAGGLRAAVAARGPSGREKLSALEVQFHRDSQQQEAETPPTSSSGCGGGAGKPREEKRTALSKVVIRRLPPGLTKEQLEEQLRPLPAHDYFEFFAADLSLYPHLYSRAYINFRNPDDILLFRDRFDGYIFLDSKGLEYPAVVEFAPFQKIAKKKLRKKDAKTGSIEDDPEYKKFLETYCVEEEKTSANPETLLGEMEAKTRELIARRTTPLLEYIKNRKLEKQRIREEKREERRRRELEKKRLREEEKRRRREEERCKKKETDKQKKIAEKEVRIKLLKKPEKGEEPTTEKPKERGEEIDTGGGKQESCAPGAVVKARPMEGSLEEPQETSHSGSDKEHRDVERSQEQESEAQRYHVDDGRRHRAHHEPERLSRRSEDEQRWGKGPGQDRGKKGSQDSGAPGEAMERLGRAQRCDDSPAPRKERLANKDRPALQLYDPGARFRARECGGNRRICKAEGSGTGPEKREEAE

- binding [7]: binds
- binding [9]: binds
B4: UPF3B (endogenous, HCT116) (protein, UniProt Q9BZI7 1-483)
chain: MKEEKEHRPKEKRVTLLTPAGATGSGGGTSGDSSKGEDKQDRNKEKKEALSKVVIRRLPPTLTKEQLQEHLQPMPEHDYFEFFSNDTSLYPHMYARAYINFKNQEDIILFRDRFDGYVFLDNKGQEYPAIVEFAPFQKAAKKKTKKRDTKVGTIDDDPEYRKFLESYATDNEKMTSTPETLLEEIEAKNRELIAKKTTPLLSFLKNKQRMREEKREERRRREIERKRQREEERRKWKEEEKRKRKDIEKLKKIDRIPERDKLKDEPKIKVHRFLLQAVNQKNLLKKPEKGDEKELDKREKAKKLDKENLSDERASGQSCTLPKRSDSELKDEKPKRPEDESGRDYREREREYERDQERILRERERLKRQEEERRRQKERYEKEKTFKRKEEEMKKEKDTLRDKGKKAESTESIGSSEKTEKKEEVVKRDRIRNKDRPAMQLYQPGARSRNRLCPPDDSTKSGDSAAERKQESGISHRKEGGEE
